These results are taken from patent US20110117008A1, “USE OF AVICINS TO DELIVER THERAPEUTIC AND DIAGNOSTIC AGENTS” (Research Development Foundation, priority 2007, published 2011).

The data set has as its system full thickness pig skin. Briefly: Water soluble anesthetic transport in full thickness pig skin, HPLC quantification.
Source text: (§1) HPLC was used to quantify delivered mass, and to calculate permabilities in lag times. Error bar represents mean+/−standard deviation.
as §1

The structures appear in SMILES notation. Where a name gives a salt, the structure may show the parent alone.

In turn, `CCN(CC)CC(=O)Nc1c(C)cccc1C` [Lidocaine HCl] returned a Lag time (female, pig) of 10.12 ± 0.32 h. The “Maximum % Enhancement over control” value (highest enhancement of the anesthetic's permeability with F094) is 175%.
